From patent US20220178930A1
No constants are given. Whether binding was seen depends on the method and setting. Some binding calls cover weakened binding; strength is not graded here.

Target: Galectin-9 (human) (UniProt O00182)
Experiment: flow cytometry on cells of tumor biopsy fractions

- binding: binds
B1: anti-Galectin-9 G9.2-17 Fab fragment (Fab, V domains shown)
VH: EVQLVESGGGLVQPGGSLRLSCAASGFTVSSSSIHWVRQAPGKGLEWVAYISSSSGYTYYADSVKGRFTISADTSKNTAYLQMNSLRAEDTAVYYCARYWSYPSWWPYRGMDYWGQGTLVTVSS
VL: DIQMTQSPSSLSASVGDRVTITCRASQSVSSAVAWYQQKPGKAPKLLIYSASSLYSGVPSRFSGSRSGTDFTLTISSLQPEDFATYYCQQSSTDPITFGQGTKVEIKR
